Like-named read-outs stand apart in the source and are kept apart here.
Tests used:
Assay in all cases: cells
MDA-MB-468 cells = details: Homo sapiens, read-out: Cell Viability IC50 (μM) ± SEM
Description: (§1) Cells in media with vehicle treatment are considered control wells. MTT (3-(4,5-dimethyl-2-thiazolyl)-2,5-diphenyl-2H-tetrazolium bromide) was prepared as a stock solution of 5 mg/mL in 1× phosphate-buffered saline (PBS, pH 7.2). At the end of the drug treatment period (24 or 48 or 72 hours), 10 μL of MTT solution was added to each well. After incubation for 4 hours at 37° C., 100 μL of solubilizing buffer (10% sodium dodecyl sulfate dissolved in 0.01 N HCl) was added to each well. After a 15-minute incubation at 37° C., the 96-well plate was read by a plate reader at 590 nm for absorbance density values to determine the cell viability. The cell viability (percentage of control) is calculated by using the following formula: (OD of treated well (−blank))/(mean OD control well (−blank))×100. […] Drug effects on these cells were determined in quadruplicate wells in three independent experiments.

[1] = test system: MDA-MB-231, MDA-MB-468, and T47D cells; details: Homo sapiens, 72 h, read-out: IC50 dose
Description: as §1

T47D cells = details: Homo sapiens, read-out: Cell Viability IC50 (μM) ± SEM
Description: as §1

MDA-MB-231 cells = details: Homo sapiens, read-out: Cell Viability IC50 (μM) ± SEM
Description: as §1

CC(C)NCC(O)COc1cccc2ccccc12 (stereo not shown) [PRO, propranolol]
IC50 (MDA-MB-468 cells; MDA-MB-468, 24 h): 120.5 ± 0.86 µM | IC50 (MDA-MB-468 cells; MDA-MB-468, 48 h): 120.5 ± 0.98 µM | IC50 (MDA-MB-468 cells; MDA-MB-468, 72 h): 100 ± 1.04 µM | IC50 [1]: 100 to 120 µM | IC50 (T47D cells; 24 h): 100.2 ± 0.74 µM | IC50 (T47D cells; 48 h): 105 ± 1.69 µM | IC50 (T47D cells; 72 h): 100.7 ± 0.45 µM | IC50 (MDA-MB-231 cells; MDA-MB-231, 24 h): 100.5 ± 0.38 µM | IC50 (MDA-MB-231 cells; MDA-MB-231, 48 h): 100.5 ± 0.29 µM | IC50 (MDA-MB-231 cells; MDA-MB-231, 72 h): 100.2 ± 0.97 µM

From US20240390490A1, “PHARMACEUTICAL COMPOSITIONS FOR THE TREATMENT OF CANCERS” (Rutgers, The State University of New Jersey, priority 2021, published 2024)
